Key:
[1] = tested on: E. coli CCARM 1229; experiment: MIC assay, drug-resistant strain; assay type: cell-based; conditions: Escherichia coli, CCARM1229, peptides assayed in DMEM supplemented with 10% FBS
Text: (§1) Escherichia coli (ATCC 25922) and S. aureus (ATCC 25923) were obtained from American Type Culture Collection (Manassas, VA, USA). Escherichia coli CCARM 1229, E. coli CCARM 1238, S. aureus CCARM 3089, S. aureus 3114, Salmonella typhimurium CCARM 8009, and S. typhimurium CCARM 8013 were obtained from the culture collection of antibiotic-resistant microbes at Seoul Women’s University, Republic of Korea. Pseudomonas aeruginosa 3547 and P. aeruginosa 4007 were resistant strains isolated from hospital patients with otitis media at Chonnam National University, Republic of Korea. The rifampin-resistant S. aureus PBEL 1 and vancomycin-resistant S. aureus PBEL 2 strains used in this study were generated from wild-type S. aureus (ATCC 25923).
(§2) Bacterial cells were incubated within culture media at 37 °C. The peptide antimicrobial activity was determined by the minimal inhibition concentration (MIC) assay. […] The samples were incubated for 18–24 h at 37 °C. After incubation, the minimum inhibitory concentrations (MICs) of the peptides were determined by measuring the absorbance at an optical density of 600 nm (OD600).

[2] = tested on: E. coli CCARM 1238; experiment: MIC assay, drug-resistant strain; assay type: cell-based; conditions: Escherichia coli, CCARM1238, peptides assayed in DMEM supplemented with 10% FBS
Text: as §1, §2

`CC1(C)S[C@@H]2[C@H](NC(=O)[C@H](N)c3ccccc3)C(=O)N2[C@H]1C(=O)O` [Amp, ampicillin] was tested, and the MIC [1] was > 512 µM and the MIC [2] was > 512 µM.

Source: article PMC7460559 (International Journal of Molecular Sciences, 2020)
